Reference: publication PMC7790460, “An RNA Repair Operon Regulated by Damaged tRNAs”

Experiments:
[1] = target: T1, RtcR (full-length) (UniProt Q8ZLH7); assay: EMSA; conditions: 20 mM Tris-HCl pH 7.5, 50 mM NaCl, 1 mM MgCl2, 0.05% Tween 20, 1 mM ATP for RtcR, 30 min at 4 C then 30 min at room temperature, RNA 1 nM, recombinant protein, residues 1-527
T1 sequence (looked up): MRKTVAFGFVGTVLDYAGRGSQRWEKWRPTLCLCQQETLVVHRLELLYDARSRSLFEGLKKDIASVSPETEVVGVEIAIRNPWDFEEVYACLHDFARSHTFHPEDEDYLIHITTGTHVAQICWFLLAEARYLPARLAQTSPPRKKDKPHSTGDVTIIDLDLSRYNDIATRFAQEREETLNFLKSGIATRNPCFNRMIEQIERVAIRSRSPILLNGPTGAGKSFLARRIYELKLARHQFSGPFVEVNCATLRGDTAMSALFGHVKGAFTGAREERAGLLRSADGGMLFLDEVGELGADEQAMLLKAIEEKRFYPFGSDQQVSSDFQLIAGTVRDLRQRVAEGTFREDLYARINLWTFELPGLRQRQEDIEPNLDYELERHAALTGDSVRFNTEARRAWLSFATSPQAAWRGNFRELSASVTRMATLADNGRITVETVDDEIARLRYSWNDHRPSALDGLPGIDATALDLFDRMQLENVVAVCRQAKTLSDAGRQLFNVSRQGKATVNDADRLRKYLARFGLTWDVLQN

[2] = target: T2, RtcR CARF domain (UniProt Q8ZLH7); assay: EMSA; conditions: 20 mM Tris-HCl pH 7.5, 50 mM NaCl, 1 mM MgCl2, 0.05% Tween 20, 1 mM ATP for RtcR, 30 min at 4 C then 30 min at room temperature, RNA 1 nM, recombinant protein, residues 1-188, label: 5'-32P; for binding result: 1 mM ATP, 0.5 uM protein, 2',3'-cyclic phosphate 3' end
T2 sequence (looked up): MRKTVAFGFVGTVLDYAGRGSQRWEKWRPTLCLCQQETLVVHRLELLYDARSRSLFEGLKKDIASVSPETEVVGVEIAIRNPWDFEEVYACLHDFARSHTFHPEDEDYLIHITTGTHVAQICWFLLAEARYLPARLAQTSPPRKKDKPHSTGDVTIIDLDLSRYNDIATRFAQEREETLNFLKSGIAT

[3] = target: T1, RtcR (full-length); assay: size exclusion chromatography; conditions: ATP, 48 uM each, no 400 kDa complex, 160 kDa reduced; 3'-phosphate; 20 mM Tris-HCl pH 7.5, 50 mM NaCl, 1 mM MgCl2, 0.05% Tween 20; 1 mM ATP for RtcR; 30 min at 4 C then 30 min at room temperature; RNA 1 nM; recombinant protein; residues 1-527; label: 5'-32P (EMSA)
[4] = 1 mM ATP, 0.5 uM protein, 2',3'-cyclic phosphate 3' end, label: 5'-32P

Sequence | binding result [1, 4] | binding result [2] | other results
CGGAUAGCUCAGUCGGUAGAGCAGGGGAUUGAA [tRNAPhe(GAA) 5' half, cyclic phosphate] | binds more weakly | binds more weakly | –
GCGGGAGUGGCGAAAUUGGUAGACGCACCAGAUU [tRNALeu(UAG)-AUU 5' half, cyclic phosphate] | binds more weakly | binds more weakly | –
GCGGGAGUGGCGAAAUUGGUAGACGCACCAGAUUUA [tRNALeu(UAG)-UUA 5' half, cyclic phosphate] | binds more weakly | binds more weakly | –
GCGGGAGUGGCGAAAUUGGUAGACGCACCAGAUUUAG [tRNALeu(UAG) 5' half, after G of anticodon, 3'-OH] | – | – | binding result ([1]; 1 mM ATP, 3'-OH, label: 5'-32P): binds more weakly; half-maximal binding ([2]; 3'-OH): > 5 µM
GCGGGAGUGGCGAAAUUGGUAGACGCACCAGAUUUAG [tRNALeu(UAG) 5' half, after G of anticodon, 3'-phosphate] | – | – | binding result ([1]; 1 mM ATP, barely detectable, 3'-phosphate, label: 5'-32P (EMSA)): binds more weakly; binding result [3]: binds more weakly
GCGGGAGUGGCGAAAUUGGUAGACGCACCAGAUUUAG [tRNALeu(UAG) 5' half, after G of anticodon, cyclic phosphate] | – | – | binding result ([1]; no ATP, 2',3'-cyclic phosphate 3' end, label: 5'-32P (EMSA)): binds more weakly
GGGCGUAGUUCAAUUGGUAGAGCACCGGUCUCCA [tRNATrp(CCA) 5' half, cyclic phosphate] | binds more weakly | binds more weakly | –

The comparison behind a weaker result is the experiment's own reference, which may not be listed here. Where a protein sequence is shown, tags need not be part of it. For some of these results: The exact form of at least one protein or probe is not confirmed. For some of these results: At least one verdict was read from the data and is not stated in words by the source.
